# Test results reported in the supplement of paper PMC12823440, “Inhibitors supercharge kinase turnover through native proteolytic circuits” (Nature, 2025).
# Chains of the proteins cited; added tags and fusions are not shown. Lines headed by an entry give the natural chain unless they say otherwise; changes in a name come on top.
# UniProt O75460: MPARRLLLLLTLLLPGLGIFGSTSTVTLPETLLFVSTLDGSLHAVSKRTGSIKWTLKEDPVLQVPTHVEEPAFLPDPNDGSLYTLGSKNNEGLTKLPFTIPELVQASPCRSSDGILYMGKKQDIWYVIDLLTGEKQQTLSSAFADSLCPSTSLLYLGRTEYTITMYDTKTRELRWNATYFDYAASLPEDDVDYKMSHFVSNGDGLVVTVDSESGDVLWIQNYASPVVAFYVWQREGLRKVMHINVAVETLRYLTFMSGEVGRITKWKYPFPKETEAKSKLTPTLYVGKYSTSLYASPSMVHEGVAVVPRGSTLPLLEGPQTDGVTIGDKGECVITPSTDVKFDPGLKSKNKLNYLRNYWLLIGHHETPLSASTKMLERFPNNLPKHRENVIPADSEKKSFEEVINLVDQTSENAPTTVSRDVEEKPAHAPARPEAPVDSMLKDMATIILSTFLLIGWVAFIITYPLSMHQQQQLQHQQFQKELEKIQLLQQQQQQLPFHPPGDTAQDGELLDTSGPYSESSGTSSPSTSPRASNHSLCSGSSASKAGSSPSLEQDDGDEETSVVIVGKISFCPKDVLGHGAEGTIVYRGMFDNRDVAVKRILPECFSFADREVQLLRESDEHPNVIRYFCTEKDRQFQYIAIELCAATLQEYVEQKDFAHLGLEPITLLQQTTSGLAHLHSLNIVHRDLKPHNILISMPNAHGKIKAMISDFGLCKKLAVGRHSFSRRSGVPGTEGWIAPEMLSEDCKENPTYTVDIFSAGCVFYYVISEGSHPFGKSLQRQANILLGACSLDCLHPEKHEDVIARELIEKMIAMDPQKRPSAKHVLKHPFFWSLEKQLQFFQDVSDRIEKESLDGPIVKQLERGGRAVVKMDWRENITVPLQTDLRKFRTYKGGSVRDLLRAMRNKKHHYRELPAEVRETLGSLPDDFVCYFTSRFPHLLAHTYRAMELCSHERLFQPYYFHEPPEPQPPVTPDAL
# UniProt P21802, whole entry, looked up: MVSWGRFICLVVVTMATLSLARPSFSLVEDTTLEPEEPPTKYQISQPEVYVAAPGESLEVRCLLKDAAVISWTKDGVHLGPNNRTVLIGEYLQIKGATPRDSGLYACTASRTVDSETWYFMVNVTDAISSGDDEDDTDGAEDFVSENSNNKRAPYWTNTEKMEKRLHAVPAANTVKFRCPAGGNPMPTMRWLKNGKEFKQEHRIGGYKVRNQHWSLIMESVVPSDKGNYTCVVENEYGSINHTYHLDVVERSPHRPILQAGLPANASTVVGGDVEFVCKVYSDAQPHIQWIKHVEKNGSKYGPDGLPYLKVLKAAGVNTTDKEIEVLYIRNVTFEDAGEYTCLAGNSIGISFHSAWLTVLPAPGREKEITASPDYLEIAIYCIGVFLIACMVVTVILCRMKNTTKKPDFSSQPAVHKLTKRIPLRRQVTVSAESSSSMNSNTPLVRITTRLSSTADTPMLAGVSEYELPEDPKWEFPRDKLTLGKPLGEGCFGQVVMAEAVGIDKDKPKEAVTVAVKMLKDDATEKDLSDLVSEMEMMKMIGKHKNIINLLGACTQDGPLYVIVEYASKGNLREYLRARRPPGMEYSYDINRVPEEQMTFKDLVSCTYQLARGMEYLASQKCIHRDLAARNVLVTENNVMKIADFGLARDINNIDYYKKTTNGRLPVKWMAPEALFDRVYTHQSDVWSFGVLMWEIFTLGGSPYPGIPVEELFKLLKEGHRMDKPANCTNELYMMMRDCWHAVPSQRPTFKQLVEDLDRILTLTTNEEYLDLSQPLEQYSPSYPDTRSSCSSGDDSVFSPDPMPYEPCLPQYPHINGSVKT
# UniProt P22607, whole entry, looked up: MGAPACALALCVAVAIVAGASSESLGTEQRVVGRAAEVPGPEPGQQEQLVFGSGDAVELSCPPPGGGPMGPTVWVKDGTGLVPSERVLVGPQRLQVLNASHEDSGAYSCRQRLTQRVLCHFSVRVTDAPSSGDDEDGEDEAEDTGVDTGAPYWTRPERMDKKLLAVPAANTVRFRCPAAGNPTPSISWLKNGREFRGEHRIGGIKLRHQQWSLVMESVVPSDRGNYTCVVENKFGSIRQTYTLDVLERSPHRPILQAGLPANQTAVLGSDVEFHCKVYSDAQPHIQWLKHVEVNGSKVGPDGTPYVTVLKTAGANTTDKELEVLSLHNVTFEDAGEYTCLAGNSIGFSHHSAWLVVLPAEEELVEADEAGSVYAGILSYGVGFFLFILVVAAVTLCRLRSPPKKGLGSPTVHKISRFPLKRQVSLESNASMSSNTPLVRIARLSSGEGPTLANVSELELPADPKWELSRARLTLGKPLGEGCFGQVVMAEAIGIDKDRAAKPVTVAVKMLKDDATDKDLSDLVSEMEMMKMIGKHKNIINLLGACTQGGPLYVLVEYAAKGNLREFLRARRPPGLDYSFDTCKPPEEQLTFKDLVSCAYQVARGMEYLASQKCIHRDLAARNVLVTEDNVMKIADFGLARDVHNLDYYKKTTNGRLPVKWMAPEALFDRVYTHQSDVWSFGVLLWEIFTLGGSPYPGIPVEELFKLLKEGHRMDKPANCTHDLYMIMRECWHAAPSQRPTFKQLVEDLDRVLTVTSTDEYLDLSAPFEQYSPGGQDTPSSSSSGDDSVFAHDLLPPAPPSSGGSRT
# UniProt P36888, whole entry: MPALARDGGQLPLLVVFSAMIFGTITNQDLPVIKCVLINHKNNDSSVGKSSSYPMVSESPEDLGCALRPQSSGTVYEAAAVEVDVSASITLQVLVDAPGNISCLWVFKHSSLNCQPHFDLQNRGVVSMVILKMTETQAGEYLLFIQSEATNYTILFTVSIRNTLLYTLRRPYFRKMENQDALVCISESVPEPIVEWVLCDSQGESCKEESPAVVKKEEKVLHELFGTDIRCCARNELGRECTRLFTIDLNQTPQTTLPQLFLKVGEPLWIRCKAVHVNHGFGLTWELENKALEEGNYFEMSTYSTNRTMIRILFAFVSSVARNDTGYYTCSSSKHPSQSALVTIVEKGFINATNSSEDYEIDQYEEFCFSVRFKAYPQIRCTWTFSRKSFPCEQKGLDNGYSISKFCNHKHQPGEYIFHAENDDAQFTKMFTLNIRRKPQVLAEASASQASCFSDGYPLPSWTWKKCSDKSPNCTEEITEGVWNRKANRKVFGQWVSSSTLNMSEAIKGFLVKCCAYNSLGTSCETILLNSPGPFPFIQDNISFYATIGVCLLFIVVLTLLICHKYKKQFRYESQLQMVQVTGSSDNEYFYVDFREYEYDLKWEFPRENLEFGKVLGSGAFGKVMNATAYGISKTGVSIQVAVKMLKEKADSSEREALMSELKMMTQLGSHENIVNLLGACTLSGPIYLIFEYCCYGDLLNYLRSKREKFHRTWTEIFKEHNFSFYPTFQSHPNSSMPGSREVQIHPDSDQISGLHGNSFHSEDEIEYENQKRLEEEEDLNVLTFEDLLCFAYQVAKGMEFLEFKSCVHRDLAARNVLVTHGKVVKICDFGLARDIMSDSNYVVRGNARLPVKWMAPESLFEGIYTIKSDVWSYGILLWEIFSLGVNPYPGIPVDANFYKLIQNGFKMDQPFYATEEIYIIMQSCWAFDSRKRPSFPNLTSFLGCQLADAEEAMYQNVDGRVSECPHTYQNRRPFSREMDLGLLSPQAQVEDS
# UniProt P06241, whole entry, looked up: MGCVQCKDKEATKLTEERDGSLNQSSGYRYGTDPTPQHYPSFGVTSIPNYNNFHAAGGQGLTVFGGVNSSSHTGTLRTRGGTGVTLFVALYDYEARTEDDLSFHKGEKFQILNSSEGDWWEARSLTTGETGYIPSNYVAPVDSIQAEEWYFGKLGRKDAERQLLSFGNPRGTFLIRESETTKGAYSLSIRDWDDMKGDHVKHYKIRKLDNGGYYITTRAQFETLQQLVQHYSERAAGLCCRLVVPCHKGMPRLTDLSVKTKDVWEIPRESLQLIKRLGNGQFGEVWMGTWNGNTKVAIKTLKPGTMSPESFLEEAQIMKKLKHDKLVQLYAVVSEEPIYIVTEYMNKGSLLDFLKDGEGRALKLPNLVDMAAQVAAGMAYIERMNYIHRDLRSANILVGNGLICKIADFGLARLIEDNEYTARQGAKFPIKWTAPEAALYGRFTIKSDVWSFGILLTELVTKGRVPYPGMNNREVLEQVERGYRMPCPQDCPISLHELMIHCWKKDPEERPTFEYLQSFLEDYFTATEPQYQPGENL
# UniProt P49840: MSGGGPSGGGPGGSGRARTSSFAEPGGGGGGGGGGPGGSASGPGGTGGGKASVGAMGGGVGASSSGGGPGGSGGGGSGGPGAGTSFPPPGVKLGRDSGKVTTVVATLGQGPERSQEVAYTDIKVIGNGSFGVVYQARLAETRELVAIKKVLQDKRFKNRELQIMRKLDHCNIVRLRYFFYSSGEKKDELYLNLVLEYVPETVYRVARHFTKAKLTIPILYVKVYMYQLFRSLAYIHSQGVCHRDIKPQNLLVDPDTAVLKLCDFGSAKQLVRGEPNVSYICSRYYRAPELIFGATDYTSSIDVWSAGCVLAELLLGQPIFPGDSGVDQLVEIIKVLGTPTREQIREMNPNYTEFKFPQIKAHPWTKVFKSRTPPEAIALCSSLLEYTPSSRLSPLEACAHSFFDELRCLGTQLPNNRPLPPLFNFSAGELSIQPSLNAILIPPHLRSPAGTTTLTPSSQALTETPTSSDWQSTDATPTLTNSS
# UniProt P14616: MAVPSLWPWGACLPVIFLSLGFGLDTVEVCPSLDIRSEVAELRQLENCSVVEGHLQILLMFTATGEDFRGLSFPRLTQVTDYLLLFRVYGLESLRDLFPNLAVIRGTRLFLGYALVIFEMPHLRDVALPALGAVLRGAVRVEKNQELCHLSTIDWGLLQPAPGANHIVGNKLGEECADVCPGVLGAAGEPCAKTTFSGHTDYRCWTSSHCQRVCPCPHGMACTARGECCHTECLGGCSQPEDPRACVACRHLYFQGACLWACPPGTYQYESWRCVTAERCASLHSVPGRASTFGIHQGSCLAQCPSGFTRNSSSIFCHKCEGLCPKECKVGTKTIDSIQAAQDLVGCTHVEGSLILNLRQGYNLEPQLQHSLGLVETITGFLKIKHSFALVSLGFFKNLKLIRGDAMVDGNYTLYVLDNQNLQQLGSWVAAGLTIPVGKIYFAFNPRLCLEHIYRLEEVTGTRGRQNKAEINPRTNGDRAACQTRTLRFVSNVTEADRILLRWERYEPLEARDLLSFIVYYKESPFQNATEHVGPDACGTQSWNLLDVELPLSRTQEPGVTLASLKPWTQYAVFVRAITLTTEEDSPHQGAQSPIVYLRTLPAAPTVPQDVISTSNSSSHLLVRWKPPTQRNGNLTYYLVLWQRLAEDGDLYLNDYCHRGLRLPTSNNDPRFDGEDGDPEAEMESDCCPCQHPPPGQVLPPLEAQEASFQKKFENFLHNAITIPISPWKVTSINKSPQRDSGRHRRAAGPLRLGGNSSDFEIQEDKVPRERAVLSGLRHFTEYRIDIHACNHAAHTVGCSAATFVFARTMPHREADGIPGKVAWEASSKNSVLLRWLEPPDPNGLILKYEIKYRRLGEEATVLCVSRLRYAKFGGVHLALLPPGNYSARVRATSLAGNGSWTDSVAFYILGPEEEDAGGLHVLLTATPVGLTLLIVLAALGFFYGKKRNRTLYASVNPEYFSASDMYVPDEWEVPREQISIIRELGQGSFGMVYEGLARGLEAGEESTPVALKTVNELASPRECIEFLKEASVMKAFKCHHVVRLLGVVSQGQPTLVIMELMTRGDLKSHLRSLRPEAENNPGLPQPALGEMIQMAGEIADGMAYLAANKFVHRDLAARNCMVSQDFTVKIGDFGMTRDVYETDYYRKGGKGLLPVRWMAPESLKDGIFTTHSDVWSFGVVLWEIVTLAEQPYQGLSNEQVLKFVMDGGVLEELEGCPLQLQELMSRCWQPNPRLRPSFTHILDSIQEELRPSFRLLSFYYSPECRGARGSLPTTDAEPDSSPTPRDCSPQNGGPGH
# The other results are listed elsewhere or left out. Hit calls seldom repeat between salt and free forms of one compound.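 In K562 cells expressing nanoluciferase-fused kinases, luminescence was recorded at 4 h intervals between 2 and 18 h, normalized as percent of control with DMSO at 100% and a positive control at 0%. A significant (2 sigma) signal drop marks a time point as decreased. The authors' rule for a hit is not shown and takes in more than the number of time points.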
# How the values were obtained:
# Assay in all cases: kinase-Nluc reporter destabilization hit call (1 = scored as downregulated) (binary); higher = compound decreases kinase abundance
# Settings in all cases: K562; 2-18 h
# ERN1 = ERN1 (UniProt O75460)
# FGFR1 = FGFR1 (UniProt P11362)
# FGFR2 = FGFR2 (UniProt P21802)
# FGFR3 = FGFR3 (UniProt P22607)
# FGR = FGR (UniProt P09769)
# FLT3 = FLT3 (UniProt P36888)
# FYN = FYN (UniProt P06241)
# GSK3A = GSK3A (UniProt P49840)
# HER2 = HER2 (UniProt P04626)
# INSRR = INSRR (UniProt P14616)
Structure (SMILES),kinase-Nluc reporter destabilization hit call (ERN1),kinase-Nluc reporter destabilization hit call (FGFR1),kinase-Nluc reporter destabilization hit call (FGFR2),kinase-Nluc reporter destabilization hit call (FGFR3),kinase-Nluc reporter destabilization hit call (FGR),kinase-Nluc reporter destabilization hit call (FLT3),kinase-Nluc reporter destabilization hit call (FYN),kinase-Nluc reporter destabilization hit call (GSK3A),kinase-Nluc reporter destabilization hit call (HER2),kinase-Nluc reporter destabilization hit call (INSRR)
CC1CN(C(=O)Nc2ccc(Cl)c(Cl)c2)C(=Nc2ccc(F)cc2)S1 (stereo not given) (10 µM),inactive: 0,inactive: 0,inactive: 0,inactive: 0,inactive: 0,inactive: 0,inactive: 0,inactive: 0,inactive: 0,inactive: 0
CC(C)CC1(O)CCN(C(=O)c2ccc(NS(=O)(=O)c3cccc4nccnc34)cc2)CC1 (10 µM),inactive: 0,inactive: 0,inactive: 0,inactive: 0,inactive: 0,inactive: 0,inactive: 0,inactive: 0,inactive: 0,inactive: 0
N#Cc1ccc2ncnc(NC3CCC(N4CCOCC4)CC3)c2c1 (stereo not given) (10 µM),inactive: 0,inactive: 0,inactive: 0,inactive: 0,inactive: 0,inactive: 0,inactive: 0,inactive: 0,inactive: 0,inactive: 0
COc1ccc(Cl)cc1NC(=O)Nc1cc(C)nc2ccccc12 (2.5 µM),inactive: 0,inactive: 0,inactive: 0,inactive: 0,inactive: 0,inactive: 0,inactive: 0,inactive: 0,inactive: 0,inactive: 0
Nc1ncc(-c2cccc(N3CCNCC3)c2)cc1C(=O)Nc1ccncc1 [PKC-iota inhibitor 1] (10 µM),inactive: 0,inactive: 0,inactive: 0,inactive: 0,inactive: 0,inactive: 0,inactive: 0,inactive: 0,inactive: 0,inactive: 0
C=CC(=O)Nc1cc2c(Nc3ccc(OCc4ccccn4)c(Cl)c3)ncnc2cc1OCCN1CCOCC1 (10 µM),inactive: 0,inactive: 0,inactive: 0,inactive: 0,inactive: 0,inactive: 0,inactive: 0,inactive: 0,active: 1,inactive: 0
CO[C@H]1C[C@@H]2CC[C@@H](C)[C@@](O)(O2)C(=O)C(=O)N2CCCC[C@H]2C(=O)O[C@H]([C@H](C)C[C@@H]2CC[C@@H](O)[C@H](OC)C2)CC(=O)[C@H](C)/C=C(\C)[C@@H](O)[C@@H](OC)C(=O)[C@H](C)C[C@H](C)/C=C/C=C/C=C/1C [Rapamycin] (10 µM),inactive: 0,inactive: 0,inactive: 0,inactive: 0,inactive: 0,inactive: 0,inactive: 0,inactive: 0,inactive: 0,inactive: 0
COc1ccc(C(=O)Nc2sc3c(c2C(N)=O)CCCC3)cc1OC (10 µM),inactive: 0,inactive: 0,inactive: 0,inactive: 0,inactive: 0,inactive: 0,inactive: 0,inactive: 0,inactive: 0,inactive: 0
COc1cc(F)c(F)c(Nc2ccc(I)cc2F)c1NS(=O)(=O)C1(C[C@H](O)CO)CC1 [Refametinib] (10 µM),inactive: 0,inactive: 0,inactive: 0,inactive: 0,inactive: 0,inactive: 0,inactive: 0,inactive: 0,inactive: 0,inactive: 0
O=C(CNC(=O)c1ccc(-c2ccccc2)cc1)NC1CCCc2ccccc21 (stereo not given) [TAO Kinase inhibitor 1] (10 µM),inactive: 0,inactive: 0,inactive: 0,inactive: 0,inactive: 0,inactive: 0,inactive: 0,inactive: 0,inactive: 0,inactive: 0
Cn1nccc1Nc1nccc(-c2cc3c(s2)C(C)(C)N(CCN2CCOCC2)C3=O)n1 (10 µM),inactive: 0,inactive: 0,inactive: 0,inactive: 0,inactive: 0,inactive: 0,inactive: 0,inactive: 0,inactive: 0,inactive: 0
Cn1cc(Nc2nccc(N3C[C@H]4CC[C@@H](C3)N4C(=O)[C@@H]3CC3(F)F)n2)cn1 (10 µM),inactive: 0,inactive: 0,inactive: 0,inactive: 0,inactive: 0,inactive: 0,inactive: 0,inactive: 0,inactive: 0,inactive: 0
Cc1noc(C)c1-c1ccc(-c2cc(C(N)=O)c(NC(N)=O)s2)c(O[C@H]2CCNC2)c1 (10 µM),inactive: 0,inactive: 0,inactive: 0,inactive: 0,inactive: 0,inactive: 0,inactive: 0,inactive: 0,inactive: 0,inactive: 0
O=c1oc2cc(O)ccc2c2ccccc12 [Urolithin B] (10 µM),inactive: 0,inactive: 0,inactive: 0,inactive: 0,inactive: 0,inactive: 0,inactive: 0,inactive: 0,inactive: 0,inactive: 0
COc1cc2ncnc(Nc3cccc(Cl)c3)c2cc1OC (10 µM),inactive: 0,inactive: 0,inactive: 0,inactive: 0,inactive: 0,inactive: 0,inactive: 0,inactive: 0,inactive: 0,inactive: 0
CC1CCc2nc(N)c(C#N)c(-c3cccnc3)c2C1 (stereo not given) (10 µM),inactive: 0,inactive: 0,inactive: 0,inactive: 0,inactive: 0,inactive: 0,inactive: 0,inactive: 0,inactive: 0,inactive: 0
CC(C)CN[C@H]1CS(=O)(=O)C[C@@H]1S(=O)(=O)c1ccc(Cl)cc1 (10 µM),inactive: 0,inactive: 0,inactive: 0,inactive: 0,inactive: 0,inactive: 0,inactive: 0,inactive: 0,inactive: 0,inactive: 0
O=C(Nc1cc(Oc2cc(F)c(NC(=O)C3(C(=O)Nc4ccc(F)cc4)CC3)cc2F)ccn1)C1CC1 [Altiratinib] (10 µM),inactive: 0,inactive: 0,inactive: 0,inactive: 0,inactive: 0,inactive: 0,inactive: 0,inactive: 0,inactive: 0,inactive: 0
CCn1c(C(=O)N(C2CC2)C2CC2)cc2c3c(ncn3C)c(Nc3cc(C)n(C)n3)nc21 (10 µM),inactive: 0,inactive: 0,inactive: 0,inactive: 0,inactive: 0,inactive: 0,inactive: 0,inactive: 0,inactive: 0,inactive: 0
Cc1ccc(Nc2cc(-c3cccc(N4C(=O)c5ccccc5C4=O)c3)ncn2)cc1NS(C)(=O)=O (10 µM),inactive: 0,inactive: 0,inactive: 0,inactive: 0,inactive: 0,inactive: 0,inactive: 0,inactive: 0,inactive: 0,inactive: 0
CN1CCN(c2ccc(Nc3ncc4nc(Nc5ccccc5)n([C@@H]5CCN(S(=O)(=O)C6CC6)C5)c4n3)cc2)CC1 (2.5 µM),inactive: 0,inactive: 0,inactive: 0,inactive: 0,inactive: 0,inactive: 0,inactive: 0,inactive: 0,inactive: 0,inactive: 0
Cc1c(CN2CCN(C(=O)[C@H](C)O)CC2)sc2c(N3CCOCC3)nc(-c3cnc(N)nc3)nc12 [Apitolisib] (10 µM),inactive: 0,inactive: 0,inactive: 0,inactive: 0,inactive: 0,inactive: 0,inactive: 0,inactive: 0,inactive: 0,inactive: 0
CC(c1ccc(-c2cnc3c(-c4ccc(S(N)(=O)=O)c5ccccc45)cnn3c2)cc1)N1CCCC1 (stereo not given) (2.5 µM),inactive: 0,inactive: 0,inactive: 0,inactive: 0,inactive: 0,inactive: 0,inactive: 0,inactive: 0,inactive: 0,inactive: 0
Cc1c(CN2CCN(S(C)(=O)=O)CC2)sc2c(N3CCOCC3)nc(-c3cnc(N)nc3)nc12 (2.5 µM),inactive: 0,inactive: 0,inactive: 0,inactive: 0,inactive: 0,inactive: 0,inactive: 0,inactive: 0,inactive: 0,inactive: 0
CNCc1ccccc1-c1csc([C@@H](C)Nc2nc(C)nc3cc(OC)c(OC)cc23)c1 (2.5 µM),inactive: 0,inactive: 0,inactive: 0,inactive: 0,inactive: 0,inactive: 0,inactive: 0,inactive: 0,inactive: 0,inactive: 0
OCCNC1CCCc2c1[nH]c1ccc(-c3ccccc3)cc21 (stereo not given) (2.5 µM),inactive: 0,inactive: 0,inactive: 0,inactive: 0,inactive: 0,inactive: 0,inactive: 0,inactive: 0,inactive: 0,inactive: 0
Cn1cc(-c2ccc(CNc3cc(-c4cnc5cc(OCCCN6CCCC6)ccn45)ncn3)cc2)cn1 (10 µM),inactive: 0,inactive: 0,inactive: 0,inactive: 0,inactive: 0,inactive: 0,inactive: 0,inactive: 0,inactive: 0,inactive: 0
Nc1ncnc2c1ncn2[C@@H]1O[C@H](CO)C[C@H]1O [Cordycepin] (10 µM),inactive: 0,inactive: 0,inactive: 0,inactive: 0,inactive: 0,inactive: 0,inactive: 0,inactive: 0,inactive: 0,inactive: 0
CCn1c(=O)c(-c2ccc(-c3cncs3)cc2Cl)cc2cnc(Nc3ccc(N4CCN(C)CC4)cc3)nc21 (2.5 µM),inactive: 0,inactive: 0,inactive: 0,inactive: 0,inactive: 0,inactive: 0,inactive: 0,inactive: 0,inactive: 0,inactive: 0

# An excerpt from above with just kinase-Nluc reporter destabilization hit call (GSK3A) and kinase-Nluc reporter destabilization hit call (FGFR2).
Structure (SMILES) | kinase-Nluc reporter destabilization hit call (GSK3A) | kinase-Nluc reporter destabilization hit call (FGFR2)
COc1ccc(C(=O)Nc2sc3c(c2C(N)=O)CCCC3)cc1OC (10 µM) | inactive: 0 | inactive: 0
OCCNC1CCCc2c1[nH]c1ccc(-c3ccccc3)cc21 (stereo not given) (2.5 µM) | inactive: 0 | inactive: 0
